This test concerns the target human serum albumin (human) (UniProt P02768). Put plainly: sandwich ELISA on coated HSA, detection with anti-saporin antibody. On the technique in general: ELISA stands for enzyme-linked immunosorbent assay.

Chains of the proteins cited; added tags and fusions are not shown. Residues count along the entry.
UniProt P02768, residues 25-609: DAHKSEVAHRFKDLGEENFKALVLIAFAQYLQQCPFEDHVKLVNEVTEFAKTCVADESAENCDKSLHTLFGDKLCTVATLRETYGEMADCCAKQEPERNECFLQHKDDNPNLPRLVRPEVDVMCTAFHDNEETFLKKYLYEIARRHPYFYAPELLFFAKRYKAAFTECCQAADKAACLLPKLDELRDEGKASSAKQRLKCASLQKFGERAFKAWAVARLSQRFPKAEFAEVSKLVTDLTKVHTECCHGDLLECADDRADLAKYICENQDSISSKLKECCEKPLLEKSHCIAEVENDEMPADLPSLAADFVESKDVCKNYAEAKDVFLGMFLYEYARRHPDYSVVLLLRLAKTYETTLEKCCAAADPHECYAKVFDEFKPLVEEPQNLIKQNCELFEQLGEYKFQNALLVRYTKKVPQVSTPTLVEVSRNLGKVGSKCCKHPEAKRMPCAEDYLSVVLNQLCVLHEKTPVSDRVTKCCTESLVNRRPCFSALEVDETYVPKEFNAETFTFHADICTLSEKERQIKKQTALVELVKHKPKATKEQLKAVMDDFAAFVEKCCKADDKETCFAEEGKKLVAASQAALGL

These are yes or no findings as the source states them, for the method shown. Some entries that bind do so weakly or less than the wild type.

B1: DOM7h-8/saporin non-covalent conjugate (protein)
VL: DIQMTQSPSSLSASVGDRVTITCRASQSISSYLNWYQQKPGKAPKLLIYRNSPLQSGVPSRFSGSGSGTDFTLTISSLQPEDFATYYCQQTYRVPPTFGQGTKVEIKC
B1: the binding result was “binds”.
